PubChem BioAssay AID1159578 – Peter MacCallum Cancer Centre | 2015

Test: 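Knock-downs that alter how fast lymphatic endothelial cells migrate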 (primary screen)
Cells: human lymphatic endothelial cells
Knock-down reagent: siRNA pool against human genes, 40 nM
Duration: 48 h after transfection
Read-out: 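Cells stained with dye and imaged after a scratch; covered wound area and nuclei counted, duplicates averaged, migration set against mock wells and turned into a robust z-score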
Reading the numbers: migration robust z-score: higher = faster migration into the scratch; nuclei per well: higher = more cells in the well
Hit rule: 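Pools averaging fewer than 3300 nuclei are never called; remaining pools count as changed when migration robust z lies outside -2 to 2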
Calls: active = migration changed; inactive = no migration change, or too few cells
The deposit covers about 18,000 reagents; shown is an unselected part. About 1,030 of all reagents (5.7%) were called active. 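Inactive calls also include pools with fewer than 3300 nuclei, whose migration was not assessed.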 Raw values are not corrected between plates. Not all columns of the deposit are shown.

gene knocked down | migration robust z-score | nuclei per well, duplicate mean | outcome
UBTD1 | -1.06 | 4820 | inactive
THNSL1 | 0.08 | 5714 | inactive
ADK | -0.96 | 4393 | inactive
CDH1 | 0 | 5846 | inactive
SLC38A10 | -0.01 | 5046 | inactive
CD302 | 0.36 | 6656 | inactive
VHLL | 0.3 | 5677 | inactive
RETN | 0.55 | 6175 | inactive
KIF9 | 0.49 | 6026 | inactive
FSCN2 | -0.52 | 4096 | inactive
KIF6 | -0.44 | 6580 | inactive
DCAF15 | 1.3 | 5936 | inactive
HK3 | 1.15 | 5821 | inactive
MOB2 | 0.9 | 6048 | inactive
MSX2 | -1.71 | 6545 | inactive
RUFY2 | 1.93 | 6434 | inactive
ZNF583 | -1.28 | 5461 | inactive
YAP1 | -0.29 | 4240 | inactive
DUSP13B | 0.05 | 4850 | inactive
GRP | 1.19 | 5658 | inactive
NEURL4 | -0.33 | 5966 | inactive
KIAA0319 | 0.67 | 5596 | inactive
PRC1 | 0.32 | 4287 | inactive
AOC1 | -1.14 | 3943 | inactive
C11orf24 | -0.28 | 6178 | inactive
FGF16 | 0.8 | 6405 | inactive
PROZ | -0.16 | 5400 | inactive
SAXO6 | 1.07 | 5945 | inactive
LARP7 | -0.36 | 5784 | inactive
ZNF529 | -1.2 | 4196 | inactive
JPH2 | -1 | 5750 | inactive
CENPH | -1.59 | 4982 | inactive
CHCHD6 | 0.92 | 6138 | inactive
GPR50 | 0.91 | 5845 | inactive
KIAA0513 | -0.38 | 5774 | inactive
MC1R | 0.86 | 5517 | inactive
SPRN | 0.43 | 6115 | inactive
ZNF44 | 1.1 | 6705 | inactive
ZNF416 | 0.99 | 5599 | inactive
OR51B6 | 0.82 | 5482 | inactive
DRAM1 | -1.47 | 6012 | inactive
OGFRL1 | 0.54 | 5376 | inactive
GNG5 | -0.82 | 5615 | inactive
ATP12A | 1.64 | 7148 | inactive
ADORA3 | -1.04 | 5938 | inactive
CTNND2 | -0.58 | 5917 | inactive
SREK1 | -0.92 | 5799 | inactive
ADGRG5 | -0.6 | 5333 | inactive
HMGCR | 0.34 | 5864 | inactive
RLN3 | 0.38 | 4955 | inactive
HMGCS1 | 1.06 | 5830 | inactive
SUMO4 | -0.22 | 5411 | inactive
C1QL4 | -0.86 | 5727 | inactive
GALNT16 | -0.54 | 6604 | inactive
RAB8B | -0.2 | 6234 | inactive
PHLDA2 | 0.73 | 5816 | inactive
NUP107 | -0.52 | 5540 | inactive

Limited to “nuclei per well, duplicate mean” (7 entries from above):
GRP: 5658
NEURL4: 5966
KIAA0319: 5596
PRC1: 4287
AOC1: 3943
C11orf24: 6178
FGF16: 6405
